Experimental data reported in PubChem BioAssay AID330 (DTP/NCI, 2004).
The list does not hold the whole screen: it gathers tests that were run many times, whatever their T/C, doses with no T/C, and many T/C values between a quarter and a half above the control. Other doses and runs of a compound stand elsewhere. T/C is the treated group as % of the vehicle group. Some entries give survivors of the animals treated and no T/C: the source files T/C as zero there, which appears to mark a toxic dose or a test without result, not a measured value. Some doses without a T/C left all or most animals alive at the check, yet need not have been tolerated: survival well below the control is almost never listed, so the zero probably covers shortened survival too. Survivors were counted at the toxicity check, usually on the fifth day, unless a day is given; later deaths do not show. Schedules are NCI's codes, taken here to give the interval after Q, in days (D) or hours (H), and the number of doses after X. Some doses were run more than once; the values are given in rising order. For survival time, this PubChem deposit counts one and a half times the control or more as active, and values a quarter to a half above the control carry no call in these data; other NCI protocols may use other cut-offs. Some T/C values are followed by the survivors on the day toxicity was checked, most often the fifth; without a count, all were alive then.

System: P388 leukemia ip, CD2F1 mice, survival T/C
Test: NCI In Vivo Anticancer Drug Screen. Data for tumor model P388 Leukemia (intraperitoneal) in CD2F1 (CDF1) mice
Conditions: T/C endpoint: median survival time, higher T/C = longer survival
[1] = dose: 100.0 mg/kg/injection, schedule: Q01DX009 (ip), vehicle: saline with Tween-80
[2] = dose: 200.0 mg/kg/injection, schedule: Q01DX009 (ip), vehicle: saline with Tween-80
[3] = dose: 400.0 mg/kg/injection, schedule: Q04DX003 (ip), vehicle: saline with Tween-80
[4] = dose: 100.0 mg/kg/injection, schedule: Q04DX003 (ip), vehicle: Klucel (hydroxypropylcellulose) (HPC)
[5] = dose: 200.0 mg/kg/injection, schedule: Q04DX003 (ip), vehicle: Klucel (hydroxypropylcellulose) (HPC)
[6] = dose: 8.0 mg/kg/injection, schedule: Q01DX009 (ip), vehicle: saline with Tween-80

How did the survivor count (dose: 100.0 mg/kg/injection, schedule: Q01DX005 (ip), vehicle: Klucel (hydroxypropylcellulose) (HPC)) turn out when `CC1(C)C=C(O)C(=O)C(O)=C1` was run?
Its survivor count is 0 of 6.

And the survivor count (dose: 200.0 mg/kg/injection, schedule: Q01DX005 (ip), vehicle: Klucel (hydroxypropylcellulose) (HPC))?
The survivor count was 0 of 6.

What does the source list for `O=C(N=Nc1c(Cl)c(O)c2ccccc2c1O)c1ccccc1O`?
survivor count [1]: 5 of 6; survivor count [2]: 0 of 6

Which survivor count [3] does the source give for `CCO/C=C1\SC(=S)N(c2ccc(C(=O)O)cc2)C1=O` here?
Its survivor count is 3 of 6.

What does the source list for `O=C1C=C(SCCCC(=O)N2CCOCC2)C(=O)c2ccccc21`?
survivor count (dose: 25.0 mg/kg/injection, schedule: Q04DX003 (ip), vehicle: Klucel (hydroxypropylcellulose) (HPC)): 5 of 6; survivor count [4]: 0 of 5; survivor count [5]: 0 of 5; survivor count (dose: 400.0 mg/kg/injection, schedule: Q04DX003 (ip), vehicle: Klucel (hydroxypropylcellulose) (HPC)): 0 of 5

For `O=C(Nc1cccc(C2=NCCCN2)c1)Nc1ccc(NC(=O)Nc2cccc(C3=NCCCN3)c2)c(Cl)c1`, which T/C (dose: 2.5 mg/kg/injection, schedule: Q04DX003 (ip), vehicle: saline with Tween-80) is on record?
Its T/C is 129 % of control.

What about the T/C (dose: 5.0 mg/kg/injection, schedule: Q04DX003 (ip), vehicle: saline with Tween-80) of the same compound?
The T/C was 137 % of control.

And the survivor count (dose: 40.0 mg/kg/injection, schedule: Q04DX003 (ip), vehicle: saline with Tween-80)?
The survivor count was 6 of 6.

And the survivor count (dose: 60.0 mg/kg/injection, schedule: Q04DX003 (ip), vehicle: saline with Tween-80)?
The survivor count was 1 of 6.

And the survivor count (dose: 80.0 mg/kg/injection, schedule: Q04DX003 (ip), vehicle: saline)?
The survivor count was 6 of 6.

How did the T/C (dose: 50.0 mg/kg/injection, schedule: Q01DX005 (ip), vehicle: distilled water + Tween-80) turn out when `OCc1c(CO)c(-c2ccc(Cl)cc2)n2c1CCC2` was run?
The T/C was 131 % of control.

And the T/C (dose: 100.0 mg/kg/injection, schedule: Q01DX005 (ip), vehicle: distilled water + Tween-80)?
The T/C was 136 % of control.

What about the T/C (dose: 200.0 mg/kg/injection, schedule: Q01DX005 (ip), vehicle: distilled water + Tween-80) of the same compound?
Its T/C is 145 % of control.

Which results are given for `Cc1cccc(-c2cc3cccnc3nc2NN=O)c1C`?
T/C (dose: 12.5 mg/kg/injection, schedule: Q01DX009 (ip), vehicle: water): 127 % of control; T/C (dose: 25.0 mg/kg/injection, schedule: Q01DX009 (ip), vehicle: water): 127 and 128 % of control

How did the survivor count [3] turn out when `CCOC(=O)c1ccc(N(CCOS(C)(=O)=O)CCOS(C)(=O)=O)cc1` was run?
The survivor count was 6 of 6.

Which results are given for `C=C1C(=O)OC2C1C(OC(=O)/C(=C/CO)CO)CC1(CO1)C1CC=C(C)C21` (centres undefined)?
T/C (dose: 7.5 mg/kg/injection, schedule: Q01DX005 (ip), vehicle: Klucel (hydroxypropylcellulose) (HPC)): 126 % of control [5 of 6 alive]; survivor count (dose: 15.0 mg/kg/injection, schedule: Q01DX005 (ip), vehicle: Klucel (hydroxypropylcellulose) (HPC)): 5 of 6; survivor count (dose: 30.0 mg/kg/injection, schedule: Q01DX005 (ip), vehicle: Klucel (hydroxypropylcellulose) (HPC)): 0 of 6; survivor count (dose: 60.0 mg/kg/injection, schedule: Q01DX005 (ip), vehicle: Klucel (hydroxypropylcellulose) (HPC)): 0 of 6; survivor count (dose: 120.0 mg/kg/injection, schedule: Q01DX005 (ip), vehicle: Klucel (hydroxypropylcellulose) (HPC)): 0 of 6; survivor count (dose: 240.0 mg/kg/injection, schedule: Q01DX005 (ip), vehicle: Klucel (hydroxypropylcellulose) (HPC)): 0 of 6

For `Cc1cc(=O)n(-c2cccc3ccccc23)c(C)c1C(=O)O`, which survivor count (dose: 200.0 mg/kg/injection, schedule: Q01DX005 (ip), vehicle: saline with Tween-80) is on record?
The survivor count was 4 of 5.

Which results are given for `[N-]=[N+]=NC(=O)c1cnn(-c2ccccc2)c1N`?
survivor count (dose: 120.0 mg/kg/injection, schedule: Q01DX005 (ip), vehicle: saline with Tween-80): 0 of 6; survivor count (dose: 240.0 mg/kg/injection, schedule: Q01DX005 (ip), vehicle: saline with Tween-80): 0 of 6

For `COC1/C=C/OC2(C)Oc3c(C)c(O)c4c(O)c(c(/C=N/NC5C6CC7CC(C6)CC5C7)c(O)c4c3C2=O)NC(=O)/C(C)=C/C=C/C(C)C(O)C(C)C(O)C(C)C(OC(C)=O)C1C` (centres undefined), which survivor count [1] is on record?
The survivor count was 5 of 6.

What about the survivor count [2] of the same compound?
The survivor count was 0 of 6.

How did the survivor count (dose: 50.0 mg/kg/injection, schedule: Q01DX009 (ip), vehicle: Klucel (hydroxypropylcellulose) (HPC)) turn out when `CC1CC(c2ccc(Cl)cc2)C(c2ccc(Cl)cc2)C(=O)O1` (centres undefined) was run?
The survivor count was 5 of 6.

And the survivor count (dose: 200.0 mg/kg/injection, schedule: Q01DX009 (ip), vehicle: Klucel (hydroxypropylcellulose) (HPC))?
Its survivor count is 2 of 6.

Which survivor count [2] does the source give for `CC(C)(C)N=C(CCNC1CCCCC1)Nc1c(Cl)cccc1Cl` here?
The survivor count was 3 of 6.

For `O=C1OCc2c1cc1n(c2=O)Cc2cc3ccccc3nc2-1`, which T/C (dose: 4.0 mg/kg/injection, schedule: Q01DX009 (ip), vehicle: saline with Tween-80) is on record?
The T/C was 94 [5 of 6 alive], 98 [5 of 6 alive], 107, 112 % of control.

What about the T/C [6] of the same compound?
Its T/C is 92, 117, 127 % of control.

What about the survivor count [6] of the same compound?
Its survivor count is 6 of 6.

What about the survivor count (dose: 16.0 mg/kg/injection, schedule: Q01DX009 (ip), vehicle: saline with Tween-80) of the same compound?
The survivor count was 6 of 6.

And the survivor count (dose: 32.0 mg/kg/injection, schedule: Q01DX009 (ip), vehicle: saline with Tween-80)?
Its survivor count is 5 of 6.

What about the survivor count (dose: 64.0 mg/kg/injection, schedule: Q01DX009 (ip), vehicle: saline with Tween-80) of the same compound?
Its survivor count is 6 of 6.

How did the survivor count [2] turn out when `CCCCCCCCOC(=O)CP(=O)(O)O` was run?
The survivor count was 6 of 6.

How did the T/C (dose: 3.13 mg/kg/injection, schedule: Q01DX009 (ip), vehicle: other) turn out when `[O-]c1cc2c3c(c1)c1cc4c(cc1c[n+]3C=C2)OCO4` was run?
Its T/C is 127 and 139 % of control.

What about the T/C (dose: 6.25 mg/kg/injection, schedule: Q01DX009 (ip), vehicle: other) of the same compound?
Its T/C is 133 and 136 % of control.

What about the T/C (dose: 12.5 mg/kg/injection, schedule: Q01DX009 (ip), vehicle: other) of the same compound?
The T/C was 130 and 148 % of control.

And the T/C (dose: 25.0 mg/kg/injection, schedule: Q01DX009 (ip), vehicle: other)?
Its T/C is 145 and 148 % of control.

What about the T/C (dose: 50.0 mg/kg/injection, schedule: Q01DX009 (ip), vehicle: other) of the same compound?
The T/C was 141 % of control.

And the survivor count (dose: 100.0 mg/kg/injection, schedule: Q01DX009 (ip), vehicle: other)?
The survivor count was 0 of 6, 3 of 6, 5 of 6.

What about the survivor count (dose: 200.0 mg/kg/injection, schedule: Q01DX009 (ip), vehicle: other) of the same compound?
The survivor count was 0 of 6.

What about the survivor count (dose: 400.0 mg/kg/injection, schedule: Q01DX009 (ip), vehicle: other) of the same compound?
The survivor count was 0 of 6.

Which survivor count (dose: 12.5 mg/kg/injection, schedule: Q01DX005 (ip), vehicle: saline) does the source give for `c1cc2nc(-c3ccc4nc(C5=NCCN5)[nH]c4c3)[nH]c2cc1C1=NCCN1` here?
The survivor count was 6 of 6.

And the survivor count (dose: 100.0 mg/kg/injection, schedule: Q01DX005 (ip), vehicle: saline)?
Its survivor count is 0 of 6.

What about the survivor count (dose: 200.0 mg/kg/injection, schedule: Q01DX005 (ip), vehicle: saline) of the same compound?
The survivor count was 0 of 6.

With `Nc1ncnc2c1cnn2Cc1ccc(Cl)cc1` as the compound, how does the survivor count [2] read?
Its survivor count is 6 of 6.

How did the survivor count (dose: 12.5 mg/kg/injection, schedule: Q01DX009 (ip), vehicle: distilled water + Tween-80) turn out when `c1cc2c(cn1)Sc1cnccc1N2` was run?
Its survivor count is 4 of 4.

And the survivor count (dose: 50.0 mg/kg/injection, schedule: Q01DX009 (ip), vehicle: distilled water + Tween-80)?
Its survivor count is 2 of 4.

What about the survivor count (dose: 100.0 mg/kg/injection, schedule: Q01DX009 (ip), vehicle: distilled water + Tween-80) of the same compound?
The survivor count was 0 of 4.

For `N#CN=[N+]([O-])c1cccc(Br)c1`, which survivor count [4] is on record?
The survivor count was 3 of 6.

And the survivor count [5]?
Its survivor count is 0 of 6.

For `COC12C(COC(N)=O)C3=C(C(=O)C(C)=C(N4CC4)C3=O)N1CC1NC12` (centres undefined), which T/C (dose: 0.5 mg/kg/injection, schedule: Q04DX003 (ip), vehicle: saline with Tween-80) is on record?
Its T/C is 145 % of control.
